Assay results reported in PMC4441479.
These are yes or no findings as the source states them, for the method shown. Binding seen in cells or lysates may run through a third protein. Here binding means that the protein was enriched with, or labelled near, the bait; the list need not be complete.

Chains of the proteins cited; added tags and fusions are not shown.
UniProt Q7Z2W4: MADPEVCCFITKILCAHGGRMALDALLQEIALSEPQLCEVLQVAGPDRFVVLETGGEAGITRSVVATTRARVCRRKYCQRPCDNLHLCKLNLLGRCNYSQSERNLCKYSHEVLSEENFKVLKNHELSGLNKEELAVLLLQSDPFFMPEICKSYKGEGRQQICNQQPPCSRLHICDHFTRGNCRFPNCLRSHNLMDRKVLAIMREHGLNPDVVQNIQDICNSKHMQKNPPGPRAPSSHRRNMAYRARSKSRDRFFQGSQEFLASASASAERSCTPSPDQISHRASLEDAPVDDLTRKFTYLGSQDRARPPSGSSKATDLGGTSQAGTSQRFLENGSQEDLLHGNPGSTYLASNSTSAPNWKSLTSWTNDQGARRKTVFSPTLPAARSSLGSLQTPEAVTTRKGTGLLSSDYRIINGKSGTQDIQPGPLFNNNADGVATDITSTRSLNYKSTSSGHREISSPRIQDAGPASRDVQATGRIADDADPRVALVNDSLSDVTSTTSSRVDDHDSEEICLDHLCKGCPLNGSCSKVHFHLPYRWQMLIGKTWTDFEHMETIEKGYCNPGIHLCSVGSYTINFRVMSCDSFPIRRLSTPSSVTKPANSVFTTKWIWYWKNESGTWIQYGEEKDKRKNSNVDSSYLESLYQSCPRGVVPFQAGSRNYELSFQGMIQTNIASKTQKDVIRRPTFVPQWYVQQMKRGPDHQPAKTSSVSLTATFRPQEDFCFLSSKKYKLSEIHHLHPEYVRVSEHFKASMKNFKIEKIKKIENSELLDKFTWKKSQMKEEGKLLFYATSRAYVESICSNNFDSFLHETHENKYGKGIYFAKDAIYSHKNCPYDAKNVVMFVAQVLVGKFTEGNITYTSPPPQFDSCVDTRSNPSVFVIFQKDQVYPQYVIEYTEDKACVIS

molecular target: ZAP-L-FL (FLAG-tagged ZAP-L) (human) (UniProt Q7Z2W4); experiment: affinity purification with mass spectrometry; ZAP-L-FL or empty vector transfected in 293T; IP with α-FLAG agarose from whole cell lysates (sonication) in the presence or absence of 30 μg/ml RNase; tandem MS; hits: 3 or more peptides, two replicate IPs, not in vector control

Binder	binding
GTPase activating protein (SH3 domain) binding protein 2 (protein, UniProt Q9UN86-2 1-449) MVMEKPSPLLVGREFVRQYYTLLNKAPEYLHRFYGRNSSYVHGGVDASGKPQEAVYGQNDIHHKVLSLNFSECHTKIRHVDAHATLSDGVVVQVMGLLSNSGQPERKFMQTFVLAPEGSVPNKFYVHNDMFRYEDEVFGDSEPELDEESEDEVEEEQEERQPSPEPVQENANSGYYEAHPVTNGIEEPLEESSHEPEPEPESETKTEELKPQVEEKNLEELEEKSTTPPPAEPVSLPQEPPKPRVEAKPEVQSQPPRVREQRPRERPGFPPRGPRPGRGDMEQNDSDNRRIIRYPDSHQLFVGNLPHDIDENELKEFFMSFGNVVELRINTKGVGGKLPNFGFVVFDDSEPVQRILIAKPIMFRGEVRLNVEEKKTRAARERETRGGGDDRRDIRRNDRGPGGPRGIVGGGMMRDRDGRGPPPRGGMAQKLGSGRGTGQMEGRFTGQRR	binds
5'-3' exoribonuclease 2 (protein, UniProt Q9H0D6-1 1-950) MGVPAFFRWLSRKYPSIIVNCVEEKPKECNGVKIPVDASKPNPNDVEFDNLYLDMNGIIHPCTHPEDKPAPKNEDEMMVAIFEYIDRLFSIVRPRRLLYMAIDGVAPRAKMNQQRSRRFRASKEGMEAAVEKQRVREEILAKGGFLPPEEIKERFDSNCITPGTEFMDNLAKCLRYYIADRLNNDPGWKNLTVILSDASAPGEGEHKIMDYIRRQRAQPNHDPNTHHCLCGADADLIMLGLATHEPNFTIIREEFKPNKPKPCGLCNQFGHEVKDCEGLPREKKGKHDELADSLPCAEGEFIFLRLNVLREYLERELTMASLPFTFDVERSIDDWVFMCFFVGNDFLPHLPSLEIRENAIDRLVNIYKNVVHKTGGYLTESGYVNLQRVQMIMLAVGEVEDSIFKKRKDDEDSFRRRQKEKRKRMKRDQPAFTPSGILTPHALGSRNSPGSQVASNPRQAAYEMRMQNNSSPSISPNTSFTSDGSPSPLGGIKRKAEDSDSEPEPEDNVRLWEAGWKQRYYKNKFDVDAADEKFRRKVVQSYVEGLCWVLRYYYQGCASWKWYYPFHYAPFASDFEGIADMPSDFEKGTKPFKPLEQLMGVFPAASGNFLPPSWRKLMSDPDSSIIDFYPEDFAIDLNGKKYAWQGVALLPFVDERRLRAALEEVYPDLTPEETRRNSLGGDVLFVGKHHPLHDFILELYQTGSTEPVEVPPELCHGIQGKFSLDEEAILPDQIVCSPVPMLRDLTQNTVVSINFKDPQFAEDYIFKAVMLPGARKPAAVLKPSDWEKSSNGRQWKPQLGFNRDRRPVHLDQAAFRTLGHVMPRGSGTGIYSNAAPPPVTYQGNLYRPLLRGQAQIPKLMSNMRPQDSWRGPPPLFQQQRFDRGVGAEPLLPWNRMLQTQNAAFQPNQYQMLAGPGGYPPRRDDRGGRQGYPREGRKYPLPPPSGRYNWN	binds
Guanine nucleotide binding protein-like 3 (nucleolar) /nucleostemin (protein, UniProt Q9BVP2-1 1-549) MKRPKLKKASKRMTCHKRYKIQKKVREHHRKLRKEAKKRGHKKPRKDPGVPNSAPFKEALLREAELRKQRLEELKQQQKLDRQKELEKKRKLETNPDIKPSNVEPMEKEFGLCKTENKAKSGKQNSKKLYCQELKKVIEASDVVLEVLDARDPLGCRCPQVEEAIVQSGQKKLVLILNKSDLVPKENLESWLNYLKKELPTVVFRASTKPKDKGKITKRVKAKKNAAPFRSEVCFGKEGLWKLLGGFQETCSKAIRVGVIGFPNVGKSSIINSLKQEQMCNVGVSMGLTRSMQVVPLDKQITIIDSPSFIVSPLNSSSALALRSPASIEVVKPMEAASAILSQADARQVVLKYTVPGYRNSLEFFTVLAQRRGMHQKGGIPNVEGAAKLLWSEWTGASLAYYCHPPTSWTPPPYFNESIVVDMKSGFNLEELEKNNAQSIRAIKGPHLANSILFQSSGLTNGIIEEKDIHEELPKRKERKQEEREDDKDSDQETVDEEVDENSSGMFAAEETGEALSEETTAGEQSTRSFILDKIIEEDDAYDFSTDYV	binds
Endoplasmic reticulum protein 44 (protein, UniProt Q9BS26 30-406) EITSLDTENIDEILNNADVALVNFYADWCRFSQMLHPIFEEASDVIKEEFPNENQVVFARVDCDQHSDIAQRYRISKYPTLKLFRNGMMMKREYRGQRSVKALADYIRQQKSDPIQEIRDLAEITTLDRSKRNIIGYFEQKDSDNYRVFERVANILHDDCAFLSAFGDVSKPERYSGDNIIYKPPGHSAPDMVYLGAMTNFDVTYNWIQDKCVPLVREITFENGEELTEEGLPFLILFHMKEDTESLEIFQNEVARQLISEKGTINFLHADCDKFRHPLLHIQKTPADCPVIAIDSFRHMYVFGDFKDVLIPGKLKQFVFDLHSGKLHREFHHGPDPTDTAPGEQAQDVASSPPESSFQKLAPSEYRYTLLRDRDEL	binds
GrpE-like 1, mitochondrial (E. coli) (protein, UniProt Q9HAV7 28-217) CTATKQKNSGQNLEEDMGQSEQKADPPATEKTLLEEKVKLEEQLKETVEKYKRALADTENLRQRSQKLVEEAKLYGIQAFCKDLLEVADVLEKATQCVPKEEIKDDNPHLKNLYEGLVMTEVQIQKVFTKHGLLKLNPVGAKFDPYEHEALFHTPVEGKEPGTVALVSKVGYKLHGRTLRPALVGVVKEA	binds

Second part, the binder after the results:

binding	Binder
binds	Zinc finger protein 326, transcript variant 1 (protein, UniProt Q5BKZ1-1 1-582) MDFEDDYTHSACRNTYQGFNGMDRDYGPGSYGGMDRDYGHGSYGGQRSMDSYLNQSYGMDNHSGGGGGSRFGPYESYDSRSSLGGRDLYRSGYGFNEPEQSRFGGSYGGRFESSYRNSLDSFGGRNQGGSSWEAPYSRSKLRPGFMEDRGRENYSSYSSFSSPHMKPAPVGSRGRGTPAYPESTFGSRNYDAFGGPSTGRGRGRGHMGDFGSIHRPGIVVDYQNKSTNVTVAAARGIKRKMMQPFNKPSGTFIKKPKLAKPMEKISLSKSPTKTDPKNEEEEKRRIEARREKQRRRREKNSEKYGDGYRMAFTCSFCKFRTFEEKDIELHLESSSHQETLDHIQKQTKFDKVVMEFLHECMVNKFKKTSIRKQQTNNQTEVVKIIEKDVMEGVTVDDHMMKVETVHCSACSVYIPALHSSVQQHLKSPDHIKGKQAYKEQIKRESVLTATSILNNPIVKARYERFVKGENPFEIQDHSQDQQIEGDEEDEEKIDEPIEEEEDEDEEEEAEEVGEVEEVEEVEEVREGGIEGEGNIQGVGEGGEVGVVGEVEGVGEVEEVEELEEETAKEEPADFPVEQPEEN
binds	YTH domain containing 2 (protein, UniProt Q9H6S0 1-1430) MSRPSSVSPRQPAPGGGGGGGPSPCGPGGGGRAKGLKDIRIDEEVKIAVNIALERFRYGDQREMEFPSSLTSTERAFIHRLSQSLGLVSKSKGKGANRYLTVKKKDGSETAHAMMTCNLTHNTKHAVRSLIQRFPVTNKERTELLPKTERGNVFAVEAENREMSKTSGRLNNGIPQIPVKRGESEFDSFRQSLPVFEKQEEIVKIIKENKVVLIVGETGSGKTTQIPQFLLDDCFKNGIPCRIFCTQPRRLAAIAVAERVAAERRERIGQTIGYQIRLESRVSPKTLLTFCTNGVLLRTLMAGDSTLSTVTHVIVDEVHERDRFSDFLLTKLRDLLQKHPTLKLILSSAALDVNLFIRYFGSCPVIYIQGRPFEVKEMFLEDILRTTGYTNKEMLKYKKEKQQEEKQQTTLTEWYSAQENSFKPESQRQRTVLNVTDEYDLLDDGGDAVFSQLTEKDVNCLEPWLIKEMDACLSDIWLHKDIDAFAQVFHLILTENVSVDYRHSETSATALMVAAGRGFASQVEQLISMGANVHSKASNGWMALDWAKHFGQTEIVDLLESYSATLEFGNLDESSLVQTNGSDLSAEDRELLKAYHHSFDDEKVDLDLIMHLLYNICHSCDAGAVLIFLPGYDEIVGLRDRILFDDKRFADSTHRYQVFMLHSNMQTSDQKKVLKNPPAGVRKIILSTNIAETSITVNDVVFVIDSGKVKEKSFDALNFVTMLKMVWISKASAIQRKGRAGRCRPGICFRLFSRLRFQNMLEFQTPELLRMPLQELCLHTKLLAPVNCPIADFLMKAPEPPPALIVRNAVQMLKTIDAMDTWEDLTELGYHLADLPVEPHLGKMVLCAVVLKCLDPILTIACTLAYRDPFVLPTQASQKRAAMLCRKRFTAGAFSDHMALLRAFQAWQKARSDGWERAFCEKNFLSQATMEIIIGMRTQLLGQLRASGFVRARGGGDIRDVNTNSENWAVVKAALVAGMYPNLVHVDRENLVLTGPKEKKVRFHPASVLSQPQYKKIPPANGQAAAIKALPTDWLIYDEMTRAHRIANIRCCSAVTPVTILVFCGPARLASNALQEPSSFRVDGIPNDSSDSEMEDKTTANLAALKLDEWLHFTLEPEAASLLLQLRQKWHSLFLRRMRAPSKPWSQVDEATIRAIIAVLSTEEQSAGLQQPSGIGQRPRPMSSEELPLASSWRSNNSRKSSADTEFSDECTTAERVLMKSPSPALHPPQKYKDRGILHPKRGTEDRSDQSSLKSTDSSSYPSPCASPSPPSSGKGSKSPSPRPNMPVRYFIMKSSNLRNLEISQQKGIWSTTPSNERKLNRAFWESSIVYLVFSVQGSGHFQGFSRMSSEIGREKSQDWGSAGLGGVFKVEWIRKESLPFQFAHHLLNPWNDNKKVQISRDGQELEPLVGEQLLQLWERLPLGEKNTTD
binds	Ribonuclease/angiogenin inhibitor 1 (protein, UniProt P13489 1-461) MSLDIQSLDIQCEELSDARWAELLPLLQQCQVVRLDDCGLTEARCKDISSALRVNPALAELNLRSNELGDVGVHCVLQGLQTPSCKIQKLSLQNCCLTGAGCGVLSSTLRTLPTLQELHLSDNLLGDAGLQLLCEGLLDPQCRLEKLQLEYCSLSAASCEPLASVLRAKPDFKELTVSNNDINEAGVRVLCQGLKDSPCQLEALKLESCGVTSDNCRDLCGIVASKASLRELALGSNKLGDVGMAELCPGLLHPSSRLRTLWIWECGITAKGCGDLCRVLRAKESLKELSLAGNELGDEGARLLCETLLEPGCQLESLWVKSCSFTAACCSHFSSVLAQNRFLLELQISNNRLEDAGVRELCQGLGQPGSVLRVLWLADCDVSDSSCSSLAATLLANHSLRELDLSNNCLGDAGILQLVESVRQPGCLLEQLVLYDIYWSEEMEDRLQALEKDKPSLRVIS
binds	NOP2 nucleolar protein (protein, UniProt P46087-1 1-812) MGRKLDPTKEKRGPGRKARKQKGAETELVRFLPAVSDENSKRLSSRARKRAAKRRLGSVEAPKTNKSPEAKPLPGKLPKGISAGAVQTAGKKGPQSLFNAPRGKKRPAPGSDEEEEEEDSEEDGMVNHGDLWGSEDDADTVDDYGADSNSEDEEEGEALLPIERAARKQKAREAAAGIQWSEEETEDEEEEKEVTPESGPPKVEEADGGLQINVDEEPFVLPPAGEMEQDAQAPDLQRVHKRIQDIVGILRDFGAQREEGRSRSEYLNRLKKDLAIYYSYGDFLLGKLMDLFPLSELVEFLEANEVPRPVTLRTNTLKTRRRDLAQALINRGVNLDPLGKWSKTGLVVYDSSVPIGATPEYLAGHYMLQGASSMLPVMALAPQEHERILDMCCAPGGKTSYMAQLMKNTGVILANDANAERLKSVVGNLHRLGVTNTIISHYDGRQFPKVVGGFDRVLLDAPCSGTGVISKDPAVKTNKDEKDILRCAHLQKELLLSAIDSVNATSKTGGYLVYCTCSITVEENEWVVDYALKKRNVRLVPTGLDFGQEGFTRFRERRFHPSLRSTRRFYPHTHNMDGFFIAKFKKFSNSIPQSQTGNSETATPTNVDLPQVIPKSENSSQPAKKAKGAAKTKQQLQKQQHPKKASFQKLNGISKGADSELSTVPSVTKTQASSSFQDSSQPAGKAEGIREPKVTGKLKQRSPKLQSSKKVAFLRQNAPPKGTDTQTPAVLSPSKTQATLKPKDHHQPLGRAKGVEKQQLPEQPFEKAAFQKQNDTPKGPQPPTVSPIRSSRPPPAKRKKSQSRGNSQLLLS
